# Test results taken from PMC9944270.
# The chains behind the UniProt entries cited, without tags or fusion partners. Where a name states a change or a piece, a line headed by the entry shows the natural chain unless it says otherwise. A line that says so, or that is headed by a name, gives the form on record, which may keep a tag or linker. Residues count along the entry.
# UniProt Q9NZQ7, residues 19-290: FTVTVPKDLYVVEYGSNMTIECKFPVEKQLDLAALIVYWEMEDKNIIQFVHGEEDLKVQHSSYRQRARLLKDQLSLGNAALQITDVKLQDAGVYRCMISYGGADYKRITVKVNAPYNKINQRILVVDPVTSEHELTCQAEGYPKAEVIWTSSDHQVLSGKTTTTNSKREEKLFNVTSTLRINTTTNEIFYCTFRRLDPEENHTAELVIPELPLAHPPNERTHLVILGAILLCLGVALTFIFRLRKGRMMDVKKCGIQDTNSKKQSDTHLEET
# UniProt O14964: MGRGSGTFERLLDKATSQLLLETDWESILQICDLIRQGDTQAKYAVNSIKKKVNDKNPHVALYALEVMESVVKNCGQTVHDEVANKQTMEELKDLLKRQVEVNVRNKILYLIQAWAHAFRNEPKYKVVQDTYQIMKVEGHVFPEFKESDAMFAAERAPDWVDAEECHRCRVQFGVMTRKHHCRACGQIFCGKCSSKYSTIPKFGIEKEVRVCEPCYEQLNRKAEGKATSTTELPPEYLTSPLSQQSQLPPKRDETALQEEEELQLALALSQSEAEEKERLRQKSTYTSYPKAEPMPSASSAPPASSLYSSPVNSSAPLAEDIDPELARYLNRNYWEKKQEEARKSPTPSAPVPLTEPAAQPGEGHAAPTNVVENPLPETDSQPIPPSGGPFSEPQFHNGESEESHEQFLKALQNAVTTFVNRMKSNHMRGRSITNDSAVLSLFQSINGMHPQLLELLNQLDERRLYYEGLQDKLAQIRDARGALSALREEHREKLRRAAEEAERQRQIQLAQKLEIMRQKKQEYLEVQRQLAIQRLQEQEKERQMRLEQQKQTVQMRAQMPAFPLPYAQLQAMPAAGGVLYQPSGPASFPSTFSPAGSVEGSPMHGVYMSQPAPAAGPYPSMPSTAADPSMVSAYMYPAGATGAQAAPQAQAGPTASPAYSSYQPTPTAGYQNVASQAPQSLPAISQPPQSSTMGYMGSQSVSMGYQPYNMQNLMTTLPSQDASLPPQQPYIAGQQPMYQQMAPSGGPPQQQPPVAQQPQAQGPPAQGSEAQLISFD
# UniProt P20339: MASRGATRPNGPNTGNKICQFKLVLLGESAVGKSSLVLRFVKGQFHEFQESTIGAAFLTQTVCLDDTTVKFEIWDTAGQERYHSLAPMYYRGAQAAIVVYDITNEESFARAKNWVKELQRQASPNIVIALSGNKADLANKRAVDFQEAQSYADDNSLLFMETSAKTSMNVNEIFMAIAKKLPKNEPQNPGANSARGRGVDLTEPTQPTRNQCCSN
# UniProt P51149: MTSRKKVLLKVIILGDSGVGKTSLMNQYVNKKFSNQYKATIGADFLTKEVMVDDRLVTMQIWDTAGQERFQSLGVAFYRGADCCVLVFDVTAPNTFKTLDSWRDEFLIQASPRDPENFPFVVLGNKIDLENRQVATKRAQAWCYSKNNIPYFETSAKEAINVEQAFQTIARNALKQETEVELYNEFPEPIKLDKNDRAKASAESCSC
# UniProt Q96J02: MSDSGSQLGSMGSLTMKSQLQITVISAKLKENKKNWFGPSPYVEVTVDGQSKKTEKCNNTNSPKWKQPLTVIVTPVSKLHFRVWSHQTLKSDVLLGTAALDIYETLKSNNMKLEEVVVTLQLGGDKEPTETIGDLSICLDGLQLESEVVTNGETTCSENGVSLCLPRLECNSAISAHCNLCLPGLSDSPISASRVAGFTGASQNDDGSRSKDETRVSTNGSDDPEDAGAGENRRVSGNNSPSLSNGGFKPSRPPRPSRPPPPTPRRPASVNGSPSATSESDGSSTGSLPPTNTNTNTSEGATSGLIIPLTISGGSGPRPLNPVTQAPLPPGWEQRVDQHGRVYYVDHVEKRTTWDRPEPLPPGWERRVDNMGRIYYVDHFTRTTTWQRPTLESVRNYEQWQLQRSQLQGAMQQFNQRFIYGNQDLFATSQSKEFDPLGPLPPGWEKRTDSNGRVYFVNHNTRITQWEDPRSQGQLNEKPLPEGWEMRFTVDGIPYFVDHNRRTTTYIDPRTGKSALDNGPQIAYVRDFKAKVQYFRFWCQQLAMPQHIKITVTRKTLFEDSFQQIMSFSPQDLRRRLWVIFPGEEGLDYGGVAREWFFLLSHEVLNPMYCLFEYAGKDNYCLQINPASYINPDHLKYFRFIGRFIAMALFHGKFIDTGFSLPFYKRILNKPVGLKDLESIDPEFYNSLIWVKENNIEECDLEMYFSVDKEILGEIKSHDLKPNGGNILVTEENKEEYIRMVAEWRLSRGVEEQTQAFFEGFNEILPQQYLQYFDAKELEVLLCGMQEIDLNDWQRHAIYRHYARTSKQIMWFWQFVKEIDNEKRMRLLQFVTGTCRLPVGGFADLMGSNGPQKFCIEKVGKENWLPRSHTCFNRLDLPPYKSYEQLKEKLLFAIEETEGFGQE
# HECT ubiquitin ligase AIP4, ectopically expressed (Q96J02-2, form named): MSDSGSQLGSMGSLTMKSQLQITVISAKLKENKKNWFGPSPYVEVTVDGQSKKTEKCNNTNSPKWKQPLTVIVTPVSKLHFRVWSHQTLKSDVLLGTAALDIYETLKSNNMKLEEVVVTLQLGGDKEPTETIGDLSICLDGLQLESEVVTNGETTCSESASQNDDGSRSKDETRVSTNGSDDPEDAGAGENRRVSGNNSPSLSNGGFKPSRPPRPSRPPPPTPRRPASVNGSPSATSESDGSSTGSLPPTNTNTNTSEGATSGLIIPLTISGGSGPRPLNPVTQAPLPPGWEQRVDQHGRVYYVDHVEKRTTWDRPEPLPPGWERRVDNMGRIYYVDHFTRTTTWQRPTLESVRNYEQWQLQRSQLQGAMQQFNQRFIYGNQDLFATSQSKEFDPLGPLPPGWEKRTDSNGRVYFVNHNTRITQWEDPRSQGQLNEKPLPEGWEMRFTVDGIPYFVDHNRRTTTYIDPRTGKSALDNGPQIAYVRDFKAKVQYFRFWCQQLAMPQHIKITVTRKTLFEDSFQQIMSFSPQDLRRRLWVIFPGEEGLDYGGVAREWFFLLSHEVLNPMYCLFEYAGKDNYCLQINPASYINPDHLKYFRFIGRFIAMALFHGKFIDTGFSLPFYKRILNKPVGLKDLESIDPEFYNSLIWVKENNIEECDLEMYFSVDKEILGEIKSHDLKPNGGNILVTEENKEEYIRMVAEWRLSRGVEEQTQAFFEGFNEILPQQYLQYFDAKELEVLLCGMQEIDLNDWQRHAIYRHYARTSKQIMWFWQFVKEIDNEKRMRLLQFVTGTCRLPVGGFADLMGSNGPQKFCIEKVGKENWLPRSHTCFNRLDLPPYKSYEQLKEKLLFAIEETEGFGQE
# No constants are given. Whether binding was seen depends on the method and setting. In cells and extracts the contact can be indirect. Some binding calls cover weakened binding; strength is not graded here.
# B1: MTSS I-BAR domain containing 1 (MTSS1), ectopically expressed (protein, UniProt O43312 1-755)
# chain: MEAVIEKECSALGGLFQTIISDMKGSYPVWEDFINKAGKLQSQLRTTVVAAAAFLDAFQKVADMATNTRGGTREIGSALTRMCMRHRSIEAKLRQFSSALIDCLINPLQEQMEEWKKVANQLDKDHAKEYKKARQEIKKKSSDTLKLQKKAKKGRGDIQPQLDSALQDVNDKYLLLEETEKQAVRKALIEERGRFCTFISMLRPVIEEEISMLGEITHLQTISEDLKSLTMDPHKLPSSSEQVILDLKGSDYSWSYQTPPSSPSTTMSRKSSVCSSLNSVNSSDSRSSGSHSHSPSSHYRYRSSNLAQQAPVRLSSVSSHDSGFISQDAFQSKSPSPMPPEAPNQLSNGFSHYSLSSESHVGPTGAGLFPHCLPASRLLPRVTSVHLPDYAHYYTIGPGMFPSSQIPSWKDWAKPGPYDQPLVNTLQRRKEKREPDPNGGGPTTASGPPAAAEEAQRPRSMTVSAATRPGEEMEACEELALALSRGLQLDTQRSSRDSLQCSSGYSTQTTTPCCSEDTIPSQVSDYDYFSVSGDQEADQQEFDKSSTIPRNSDISQSYRRMFQAKRPASTAGLPTTLGPAMVTPGVATIRRTPSTKPSVRRGTIGAGPIPIKTPVIPVKTPTVPDLPGVLPAPPDGPEERGEHSPESPSVGEGPQGVTSMPSSMWSGQASVNPPLPGPKPSIPEEHRQAIPESEAEDQEREPPSATVSPGQIPESDPADLSPRDTPQGEDMLNAIRRGVKLKKTTTNDRSAPRFS
# B2: MTSS1 (whether ectopic or endogenous is not stated for the experiment) (protein, UniProt O43312 1-755)
# chain: B1 chain
# B3: MTSS1, endogenous in H1975 (protein, UniProt O43312 1-755)
# chain: B1 chain
# B4: CMTM6 (protein, UniProt Q9NX76 1-183)
# chain: MENGAVYSPTTEEDPGPARGPRSGLAAYFFMGRLPLLRRVLKGLQLLLSLLAFICEEVVSQCTLCGGLYFFEFVSCSAFLLSLLILIVYCTPFYERVDTTKVKSSDFYITLGTGCVFLLASIIFVSTHDRTSAEIAAIVFGFIASFMFLLDFITMLYEKRQESQLRKPENTTRAEALTEPLNA
# What was measured:
# [1] = target: PD-L1, ectopically expressed (human) (UniProt Q9NZQ7); assay: co-IP; reciprocal co-immunoprecipitation of ectopically expressed proteins; multiple cell lines, not named (Supplementary Fig. S5b, c)
# [2] = target: PD-L1, ectopically expressed (human) (UniProt Q9NZQ7); assay: co-IP; screen of several E3 ligases reported to regulate membrane protein monoubiquitination, against PD-L1 (Supplementary Fig. S5a); cells not given
# [3] = target: PD-L1, ectopically expressed (human) (UniProt Q9NZQ7); assay: co-IP; ectopically expressed proteins in 293 T; lysis in IP buffer (150 mM NaCl, 20 mM HEPES pH 7.4, 1% Triton X-100); antibody with protein A or G dynabeads or Flag magnetic beads; immunoblot; AIP4 with PD-L1 was tested with or without MTSS1 overexpression
# [4] = target: T1, MTSS I-BAR domain containing 1 (MTSS1), ectopically expressed (human) (UniProt O43312); assay: as above
# T1 sequence: B1 chain
# HRS (human) = HRS (human) (UniProt O14964); assay: as above
# [5] = target: PD-L1, ectopically expressed (human) (UniProt Q9NZQ7); assay: as above; remark: listed apart in the source
# RAB5A (human) = RAB5A (human) (UniProt P20339); assay: as above
# RAB7A (human) = RAB7A (human) (UniProt P51149); assay: as above
# [6] = target: AIP4 (whether ectopic or endogenous is not stated for the experiment) (not stated (human or mouse cDNA cloned)) (UniProt Q96J02); assay: co-IP; in cancer cells (Supplementary Fig. S5d, e); ectopic or endogenous not stated
# [7] = target: AIP4 (whether ectopic or endogenous is not stated for the experiment) (not stated (human or mouse cDNA cloned)) (UniProt Q96J02); assay: co-IP; sequential immunoprecipitation (Supplementary Fig. S5j); order of the precipitations and cells not stated
# [8] = target: PD-L1 (whether ectopic or endogenous is not stated for the experiment) (UniProt Q9NZQ7); assay: as above
# [9] = target: PD-L1 (whether ectopic or endogenous is not stated for the experiment) (UniProt Q9NZQ7); assay: co-IP; MTSS1 with PD-L1 after KRAS G12C overexpression or EGF treatment (Supplementary Fig. S7h); cells not given
# [10] = target: PD-L1, endogenous (human (endogenous in H1975)) (UniProt Q9NZQ7); assay: co-IP; endogenous proteins in H1975 lysate; immunoblot
# [11] = target: PD-L1 (whether ectopic or endogenous is not stated for the experiment) (UniProt Q9NZQ7); assay: co-IP; CMTM6 with PD-L1, tested for an effect of MTSS1 (Supplementary Fig. S4a); cells not given
molecule,measurement,setting,value
"HECT ubiquitin ligase AIP4, ectopically expressed (from UniProt Q96J02-2 1-862) (enzyme)",binding,[1],binds
same,binding,[2],binds
same,binding,[3],binds
"PD-L1, ectopically expressed (from UniProt Q9NZQ7 19-290)",binding,[4],binds
B1,binding,HRS (human),binds
same,binding,[5],binds
same,binding,RAB5A (human),binds
same,binding,RAB7A (human),binds
B2,binding,[6],binds
same,binding,[7],binds
same,binding,[8],binds
same,binding,[9],binds
B3,binding,[10],binds
B4,binding,[11],binds
